Test results: the supplement of paper PMC6078165
± gives the standard deviation of the averaged measurements. Values are relative to the signal before dosing, not to a vehicle control; the signal also falls without drug.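 Fibroblast labels name human fibroblasts: mostly primary ones from tissues such as uterus (C12385, HUF), lung (H6013), bone (Hs27A), adrenal (HADF) and skin (WS1), plus mammary HMF and breast cancer-associated Hs343T. The cancer cells are basal-like or mesenchymal-like triple-negative breast cancer lines. The paper calls a changed response a hit when it shifts by more than 3x the replicate standard deviation. The tissue of the other fibroblasts is not given here.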

Tested on: MDAMB231
Experiment: relative JC-1 red fluorescence (viability) vs pre-drug, coculture with fibroblast (fraction); higher = more viable cancer cells
Details: 0.1 µM
Description: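 JC-1 labelled TNBC cells cocultured 1:1 (1,500 cells each) with CellTrace Violet stained primary or stromal fibroblasts in 384-well plates in FluoroBrite medium, treated with one of 42 anticancer drugs at 0.1, 1, 10 or 100 uM. JC-1 red fluorescence (mitochondrial integrity in cancer cells only) was read by plate reader every 8 h for 72 h. Values are normalised to each well's pre-drug value. The stock of one drug was tenfold lower, so its dose labels may be too high.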

O=C(O)C(=O)O.[NH-][C@@H]1CCCC[C@H]1[NH-].[Pt+2] [Oxaliplatin]
relative JC-1 red fluorescence
Details | 8 h | 16 h | 24 h | 32 h | 40 h | 48 h | 56 h | 64 h | 72 h
coculture fibroblast: C12385 | 0.79 ± 0.0076 | 0.7254 ± 0.0047 | 0.805 ± 0.032 | 0.684 ± 0.026 | 0.638 ± 0.024 | 0.64 ± 0.027 | 0.612 ± 0.03 | 0.648 ± 0.03 | 0.644 ± 0.031
coculture fibroblast: H6013 | 0.897 ± 0.011 | 0.861 ± 0.036 | 0.844 ± 0.017 | 0.834 ± 0.03 | 0.811 ± 0.042 | 0.828 ± 0.056 | 0.811 ± 0.054 | 0.804 ± 0.051 | 0.761 ± 0.056
coculture fibroblast: H6019 | 0.7713 ± 0.00094 | 0.6925 ± 0.006 | 0.739 ± 0.025 | 0.673 ± 0.03 | 0.633 ± 0.026 | 0.644 ± 0.026 | 0.595 ± 0.041 | 0.612 ± 0.015 | 0.583 ± 0.021
coculture fibroblast: H6076 | 0.835 ± 0.052 | 0.752 ± 0.032 | 0.701 ± 0.011 | 0.675 ± 0.011 | 0.664 ± 0.017 | 0.635 ± 0.03 | 0.633 ± 0.039 | 0.634 ± 0.049 | 0.639 ± 0.048
coculture fibroblast: H6231 | 0.893 ± 0.074 | 0.824 ± 0.055 | 0.753 ± 0.031 | 0.705 ± 0.013 | 0.6608 ± 0.0058 | 0.631 ± 0.018 | 0.596 ± 0.029 | 0.587 ± 0.051 | 0.572 ± 0.06
coculture fibroblast: HADF | 0.8675 ± 0.007 | 0.83 ± 0.0087 | 0.796 ± 0.015 | 0.76089 ± 0.0001 | 0.72799 ± 0.00067 | 0.725 ± 0.013 | 0.706 ± 0.0074 | 0.7035 ± 0.0044 | 0.67 ± 0.012
coculture fibroblast: HCFa | 0.908 ± 0.01 | 0.875 ± 0.0099 | 0.848 ± 0.012 | 0.8277 ± 0.0014 | 0.7912 ± 0.0066 | 0.746 ± 0.0078 | 0.727 ± 0.0032 | 0.6986 ± 0.0017 | 0.643 ± 0.011
coculture fibroblast: HCPF | 0.853 ± 0.014 | 0.784 ± 0.027 | 0.74 ± 0.024 | 0.719 ± 0.033 | 0.673 ± 0.043 | 0.638 ± 0.044 | 0.609 ± 0.033 | 0.589 ± 0.032 | 0.57 ± 0.027
coculture fibroblast: HHSteC | 0.891 ± 0.01 | 0.852 ± 0.009 | 0.806 ± 0.011 | 0.765 ± 0.01 | 0.7328 ± 0.0029 | 0.717 ± 0.0037 | 0.66884 ± 0.00036 | 0.663 ± 0.023 | 0.626 ± 0.013
coculture fibroblast: HMF | 0.8279 ± 0.0024 | 0.748 ± 0.017 | 0.7058 ± 0.0028 | 0.6674 ± 0.0021 | 0.633 ± 0.0039 | 0.6045 ± 0.0059 | 0.589 ± 0.015 | 0.578 ± 0.021 | 0.577 ± 0.035
coculture fibroblast: HPFa | 0.915 ± 0.027 | 0.8861 ± 0.0086 | 0.835 ± 0.0086 | 0.787 ± 0.014 | 0.761 ± 0.0057 | 0.735 ± 0.011 | 0.6793 ± 0.0041 | 0.649 ± 0.0092 | 0.595 ± 0.011
coculture fibroblast: HUF | 0.803 ± 0.016 | 0.697 ± 0.015 | 0.7277 ± 0.0067 | 0.591 ± 0.029 | 0.543 ± 0.016 | 0.534 ± 0.018 | 0.496 ± 0.011 | 0.511 ± 0.015 | 0.504 ± 0.022
coculture fibroblast: Hs5 | 0.8201 ± 0.001 | 0.772 ± 0.0078 | 0.7385 ± 0.0059 | 0.705 ± 0.011 | 0.684 ± 0.014 | 0.631 ± 0.0088 | 0.6098 ± 0.0016 | 0.595 ± 0.011 | 0.575 ± 0.0071
coculture fibroblast: Hs27A | 0.864 ± 0.01 | 0.8286 ± 0.0033 | 0.792 ± 0.02 | 0.769 ± 0.024 | 0.729 ± 0.024 | 0.707 ± 0.024 | 0.69 ± 0.033 | 0.674 ± 0.033 | 0.625 ± 0.034
coculture fibroblast: Hs343T | 0.811 ± 0.034 | 0.732 ± 0.041 | 0.667 ± 0.043 | 0.638 ± 0.043 | 0.6 ± 0.049 | 0.559 ± 0.048 | 0.538 ± 0.034 | 0.523 ± 0.024 | 0.513 ± 0.017
coculture fibroblast: WS1 | 0.7581 ± 0.0013 | 0.6822 ± 0.0066 | 0.71 ± 0.024 | 0.629 ± 0.026 | 0.587 ± 0.019 | 0.587 ± 0.027 | 0.557 ± 0.024 | 0.566 ± 0.026 | 0.558 ± 0.016
